For this experiment, the target named is mouse PRDM9 without zinc fingers (aa 1–511) fused to LexA (mouse) (UniProt Q96EQ9). In words: two-hybrid; screen by Hybrigenics; bait mouse PRDM9 aa 1–511 fused to LexA; mouse cDNA library from testes of 14–16 dpp mice.

Amino acid sequences for entries named in this document (tags omitted). Residues count along the entry.
UniProt Q96EQ9, residues 1-511: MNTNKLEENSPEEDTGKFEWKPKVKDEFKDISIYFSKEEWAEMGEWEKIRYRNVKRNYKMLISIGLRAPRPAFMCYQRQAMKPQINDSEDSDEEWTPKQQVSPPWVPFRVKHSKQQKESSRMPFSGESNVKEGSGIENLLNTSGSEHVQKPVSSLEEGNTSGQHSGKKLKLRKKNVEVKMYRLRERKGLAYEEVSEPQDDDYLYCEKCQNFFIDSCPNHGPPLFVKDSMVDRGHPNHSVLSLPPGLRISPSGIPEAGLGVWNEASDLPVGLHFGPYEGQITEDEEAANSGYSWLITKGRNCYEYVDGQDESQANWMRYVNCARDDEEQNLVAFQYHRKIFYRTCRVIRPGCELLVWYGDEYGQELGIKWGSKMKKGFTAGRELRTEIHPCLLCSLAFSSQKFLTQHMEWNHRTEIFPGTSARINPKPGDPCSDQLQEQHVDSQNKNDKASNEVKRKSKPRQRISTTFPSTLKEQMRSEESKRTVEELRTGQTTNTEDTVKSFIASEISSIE

Results are given in words; binding and its absence hold for the method and conditions named. Some entries that bind do so weakly or less than the wild type.

B1: HELLS clones from the yeast two-hybrid screen (six clones that share residues 30 to 448 of HELLS) (domain or fragment, UniProt Q60848 30-448)
chain: RKMLEEAQKSWDRESTEIRYRRLQHLLEKSNIYSKFLLTKMEQQQLEEQKKKEKLEKKKRSLKLTEGKSLVDGNGEKPVMKKKRGREDESYNISEVMSKEEILSVAKKHKDNEDESSSTTSLCVEDIQKNKDSNSMIKDRLSQTVRQNSKFFFDPVRKCNGQPVPFQQPKHFTGGVMRWYQVEGMEWLRMLWENGINGILADEMGLGKTVQCIATIALMIQRGVPGPFLVCGPLSTLPNWMAEFKRFTPEIPTLLYHGTREDRRKLVKNIHKRQGTLQIHPVVVTSFEIAMRDQNALQHCYWKYLIVDEGHRIKNMKCRLIRELKRFNADNKLLLTGTPLQNNLSELWSLLNFLLPDVFDDLKSFESWFDITSLSETAEDIIAKEREQNVLHMLHQILTPFLLRRLKSDVALEVPPKRE
Regarding B1, the binding result is recorded as “binds”.

The values above are taken from article PMC7599071.
